Laboratory results as given in US20240382474A1, “ENPP1 MODULATORS AND USES THEREOF” (Vir Biotechnology, Inc., priority 2021, published 2024).
Some results were stated once for a whole list of compounds, not compound by compound.

System: MC38 tumors
Experiment: Intratumoral cytokine levels at day 10 in MC38 tumors (Study 2; Luminex cytokine and chemokine panel, IFN-β ELISA)
Type: in vivo, C57BL/6 mice
Protocol: In this study, 6-8 week old female C57BL/6 mice were implanted subcutaneously in the flank with 5×10^5 MC38 cells. Tumors were measured every 2-3 days using a caliper. Body weight was measured every 2-3 days. Dosing initiated on Day (when the average tumor volume reached 50 mm^3 with 15 animals assigned to each treatment group. Animals were dosed orally by gavage with Compound 26 (4 mg/kg PO QD) or Compound 56 (either 1 mg/kg PO QD or 12 mg/kg PO QD).
A subset of 5 animals from each group were collected on day 10 after the initiation of dosing. Tumors were harvested and lysed via sonication. Supernatants were collected, adjusted for total protein, and assayed using a Luminex cytokine and chemokine panel (Invitrogen) and an IFN-β ELISA. The remaining 10 animals in each group were dosed and monitored through Day 27 or until tumors reached 2 cm in size.
Intratumoral concentrations for each of these inflammatory cytokines are provided in picogram of cytokine per gram of tumor tissue. FIGS. 4B-F each provide data for each of the following: (1) untreated control group (circles); (2) mice treated with 4 mg/kg QD Compound 26 (triangles); (3) mice treated with 12 mg/kg QD […]; and (4) mice treated with […].

COc1ccc2c(Oc3ccc([S@@](=N)(=O)NC[C@@H](C)O)cc3)ccnc2c1 [Compound 26, (S)-N-((R)-2-hydroxypropyl)-4-((7-methoxyquinolin-4-yl)oxy)benzenesulfonimidamide]
median intratumoral concentration of eotaxin (FIG. 4F) (4 mpk QD): < 5000 pg MIP-1beta/g of tumor | median intratumoral concentration of interferon beta (IFN beta) (FIG. 4B) (4 mpk QD): 200-300 pg IFNbeta/g of tumor | median intratumoral concentration of macrophage inflammatory protein-1-beta (MIP-1beta) (FIG. 4D) (4 mpk QD): < 5000 pg MIP-1 beta/g of tumor | median intratumoral concentration of monocyte-chemotactic protein 3 (MCP-3) (FIG. 4E) (4 mpk QD): 10000-12000 pg MCP-3/g of tumor

COc1ccc2c(Nc3ccc([S@@](=N)(=O)NC[C@@H](C)O)cc3)ccnc2c1 [Compound 56, (S)-N-((R)-2-hydroxypropyl)-4-((7-methoxyquinolin-4-yl)amino)benzenesulfonimidamide]
median intratumoral concentration of eotaxin (FIG. 4F) (1 mpk QD): < 5000 pg MIP-1beta/g of tumor | median intratumoral concentration of interferon beta (IFN beta) (FIG. 4B) (1 mpk QD): 200-300 pg IFNbeta/g of tumor | median intratumoral concentration of interferon γ-induced protein 10 kDa (IP-10) (FIG. 4C) (1 mpk QD): 1000-2000 pg IP-10/g of tumor | median intratumoral concentration of macrophage inflammatory protein-1-beta (MIP-1beta) (FIG. 4D) (1 mpk QD): < 5000 pg MIP-1 beta/g of tumor | median intratumoral concentration of monocyte-chemotactic protein 3 (MCP-3) (FIG. 4E) (1 mpk QD): 10000-12000 pg MCP-3/g of tumor
